From PubChem BioAssay AID540276 (National Center for Advancing Translational Sciences (NCATS), 2011)
In all, about 300,000 compounds went through this assay and about 5,400 (1.8%) were called active. The shares of active, inactive and inconclusive entries below differ from those in the screen. Calls come from the whole dose curve; tested in HEK293 cells. Potencies beside an inconclusive call are fits to weak or partial responses and may not hold up.

Assay: qHTS for inhibitors of binding or entry into cells for Marburg Virus
Conditions: Marburg virus pseudotyped entry inhibition, cell reporter; series mostly up to 37.8 µM
Potency is the fitted concentration of half-maximal effect.

SMILES	Potency
Nn1c(N2CCCCC2)nc2ccccc21	inconclusive: 22.4 µM [activator, single point]
C[C@@H](ON=C1[C@H]2CCn3c(=O)n(-c4ccccc4)c(=O)n3[C@@H]2[C@H](O)[C@@H]2O[C@H]12)c1cn([C@H](CO)Cc2ccccc2)nn1	inactive
CC1CC1C(=O)Nc1cc(S(=O)(=O)N2CCOCC2)ccc1N1CCCC1 (stereo not drawn)	inactive
COC(=O)[C@@H]1CCCN1C(=O)CCc1nnc(C2CCCCC2)o1	inconclusive: 5.62 µM [inhibitor, partial curve, poor fit]
CC(C)Cc1csc(NC(=O)c2ccc(Cl)cc2)c1C(=O)O	inconclusive: 35.5 µM [inhibitor, single point]
Cc1ccc(S(=O)(=O)CC(=O)N2CCCCCC2)cc1	inconclusive: 29.1 µM [activator, single point]
O=C1N(Cc2ccccc2C(F)(F)F)c2ccccc2[C@@]12O[C@H](COc1ccccc1)CC1=C2CCC1	inactive
COc1cccc(NC(=O)/C=C/c2ccco2)c1	inconclusive: 6.31 µM [inhibitor, partial curve, poor fit]
CN1CCN(S(=O)(=O)c2ccc(N(C)Cc3ccc(C(F)(F)F)cc3)c([N+](=O)[O-])c2)CC1	active: 10 µM
COc1ccc(N(CC(=O)Nc2cc(C)on2)S(=O)(=O)c2ccc(Cl)cc2)cc1	inactive
C=C(C)CCN1C(=O)NC(c2cccc(C(F)(F)F)c2)C(C(=O)OC)=C1C (stereo not drawn)	inconclusive: 0.0944 µM [activator, partial curve, poor fit]
COc1cc(C2CC(=O)C3=C(C2)Nc2ncnn2C3c2cccs2)cc(OC)c1OC (stereo not drawn)	inactive
CCOC(=O)Cc1c(C)nc2cc(C)nn2c1C	inconclusive: 5.62 µM [inhibitor, single point]
COc1ccccc1N(C)S(=O)(=O)c1ccc(C(=O)NCc2ccc3c(c2)OCO3)cc1	inconclusive: 22.4 µM [inhibitor, single point]
CC(C)c1ccc(O)c(C(=O)c2cnn(-c3ccccc3)c2)c1	inconclusive: 35.5 µM [inhibitor, single point]
COc1ccc(N2CCN(C(=O)CSc3nnc(COc4cccc5cccnc45)o3)CC2)cc1	inconclusive: 23.1 µM [inhibitor, single point]
Cc1ccc(Sc2ncccc2C(=O)NCC(c2ccc(F)cc2)N2CCOCC2)c(C)c1 (stereo not drawn)	inconclusive: 10 µM [inhibitor, partial curve, poor fit]
CC(=O)Nc1ccc(NC(=O)CSc2nnnn2-c2ccc3c(c2)OCCO3)cc1	inactive

In the list so far, these have an aryl thioether with sulfur outside any ring.
SMILES	Potency
COc1ccc(N2CCN(C(=O)CSc3nnc(COc4cccc5cccnc45)o3)CC2)cc1	inconclusive: 23.1 µM [inhibitor, single point]
Cc1ccc(Sc2ncccc2C(=O)NCC(c2ccc(F)cc2)N2CCOCC2)c(C)c1 (stereo not drawn)	inconclusive: 10 µM [inhibitor, partial curve, poor fit]
CC(=O)Nc1ccc(NC(=O)CSc2nnnn2-c2ccc3c(c2)OCCO3)cc1	inactive
